Test results from patent publication US7223777B2, “Compounds for the management of aging-related and diabetic vascular complications, process for their preparation, therapeutic and cosmetic uses thereof” (Torrent Pharmaceuticals Ltd., priority 2001, dated 2007).
Some entries share one result that the patent states for a list of compounds.

The chains behind the UniProt entries cited, without tags or fusion partners. Residues count along the entry.
UniProt P02769, 25-607: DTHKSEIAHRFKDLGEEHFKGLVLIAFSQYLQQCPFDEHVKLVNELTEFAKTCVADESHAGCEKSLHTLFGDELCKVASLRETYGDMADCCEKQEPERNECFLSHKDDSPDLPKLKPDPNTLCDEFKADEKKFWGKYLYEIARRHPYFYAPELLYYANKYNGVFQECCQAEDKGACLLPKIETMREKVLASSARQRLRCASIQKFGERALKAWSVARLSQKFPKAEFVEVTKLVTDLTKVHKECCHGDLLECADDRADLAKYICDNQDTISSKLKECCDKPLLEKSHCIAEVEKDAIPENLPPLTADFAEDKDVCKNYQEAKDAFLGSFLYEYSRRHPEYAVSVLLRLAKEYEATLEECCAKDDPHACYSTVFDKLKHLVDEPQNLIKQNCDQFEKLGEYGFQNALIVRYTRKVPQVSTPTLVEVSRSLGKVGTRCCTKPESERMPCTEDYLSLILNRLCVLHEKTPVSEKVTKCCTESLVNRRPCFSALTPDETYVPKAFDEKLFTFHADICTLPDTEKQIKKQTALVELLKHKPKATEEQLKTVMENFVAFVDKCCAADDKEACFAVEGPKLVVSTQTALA

Target: T1, AGE-BSA (Bos taurus, UniProt P02769)
T1 construct: Bovine serum albumin (fraction V) (BSA); from tissue; host or cells: bovine serum (fraction V); own knowledge: fraction V is the albumin fraction of plasma/serum
Test: In-vitro screening for AGE-breaking activity (AGE-BSA incubated with compound; ELISA / gel permeation chromatography)
Assay type: biochemical, bovine
Settings: summary of Table 2
Experimental: Fluorescence was used as the criteria to monitor the increased AGE formation.
160 mg/ml of protein, bovine serum albumin, BSA and 1.6M glucose sugar were dissolved in phosphate buffered saline, PBS. Sodium azide was added at 0.02% concentration as a preservative. The solution was filtered asceptically through a […] filter and kept for aging at 37° C. for 16 weeks. After 16 weeks the solution was dialyzed against PBS, aliquoted and stored at −20° C.
To determine the AGE breaking activity, 10 μg/ml of the 16 weeks AGE-BSA was incubated with different concentrations of the test compounds at 37° C. for 24 hours and AGE breaking activity of the test compounds by ELISA was determined.
• 1. Different concentrations of 16 weeks AGE-BSA were coated on a microtiter plate as standard. Each concentration is coated in triplicates. • 2. The test samples were coated on microtiter plate at a concentration of 5 ng. to 20 ng per well in triplicates. • 3. The plate was incubated at 37° C. for one hour. • 4. After incubation the plate was washed with PBST (PBS with 0.05% Tween 20). • 5. Blocking with 5% skimmed milk in PBS at 37° C. for one hour was done. • 6. The plate was washed with PBST. • 7. Primary antibody against AGE-BSA was added and the plate is incubated at 37° C. for one hour. • 8. The plate was washed with PBST. • 9. Secondary antibody anti rabbit HRPO (Horse-Radish Per Oxidase) conjugate was added and the plate is incubated at 37° C. for one hour. • 10. The plate was washed with PBST. • 11. Colour development with OPD (orthophenylenediamine dihydrochloride) and hydrogen peroxide was done. • 12. OD (optical density) at (450 nm reading –620 nm reading) was measured after incubation at 37° C. for 15 minutes with Microplate ELISA Reader.
The breaker activity of the compounds were determined by the following formula:
[formula] OD450-620Control=Absorbance of 20 ng AGE-BSA after incubation at 37° C. for 24 hours without test compound. OD450-620Test=Absorbance of 20 ng AGE-BSA after incubation at 37° C. for 24 hours with required concentration of test compound.
Gel Permeation Chromatography based method was used to determine AGE breaking activities of the compounds.
Separation by Gel Permeation Chromatography (GPC) depends on differences in the size, more precisely the hydrodynamic volume, of the proteins in a sample. […] The pores of a column particle are differentially accessible to smaller particles, depending on their size. This volume of the column is called (V1). The total accessible volume (Vt) is the sum of the volume outside the particles (V0) and the volume accessible inside the particles (V1): Vt=V0+Vi Therefore, in a typical Gel Permeation Chromatography (GPC) run, high molecular weight molecules elute at a lower retention time whereas lower molecular weight molecules are retained for longer time. For the purpose of quantification, the area under the curve for the respective molecule is recorded. The same principle has been applied in the in vitro screening of the molecules of instant invention. Highly cross-linked Advanced Glycosylated Endproducts (AGE) were prepared in vitro by incubating Bovine Serum Albumin (BSA) with glucose for a period of 16 weeks. […] The reduction in the area of AGE-BSA incubated in the presence of AGE breaker as compared to that of control AGE BSA (incubated in absence of AGE breaker) gives an estimate of the AGE breaker activity of the drug. In order to check the non-specific activity of the molecule, a similar experiment was repeated with BSA as well. Methodology:
A known concentration of 16-week AGE-BSA was incubated with and without a predetermined concentration of the drug at 37° C. for 24 hours in clean transparent glass test tubes. The solution without drug served as the control and the solution containing the drug was treated as the test sample.
Gel permeation chromatography was performed on equal volumes of control AGE-BSA preparation and solution of AGE-BSA treated with drug. […]

Structure (SMILES) | AGE breaking activity (in words) | potency of AGE breaking activity (in words)
Cc1cc(C)n(Cc2cc(-c3ccc[n+](CC(=O)NC4CC4)c3)[nH]n2)n1.[Br-] [Compound 7, 1-[2-(Cyclopropylamino)-2-oxoethyl]3-[3-{(3,5-dimethylpyrazol-1-yl)methyl}-pyrazol-5-yl]-pyridinium bromide] | very good AGE breaking activity | 
Cc1cc(C)n(Cc2cc(-c3ccc[n+](CC(=O)c4cc([N+](=O)[O-])cs4)c3)[nH]n2)n1.[Br-] [Compound 8, 1-{2-(4-Nitro-2-thienyl)-2-oxoethyl}-3-[3{(3,5-dimethylpyrazol-1-yl)methyl}-pyrazol-5-yl]-pyridinium bromide] | very good AGE breaking activity | significantly of high order
O=C(C[n+]1cccc(-c2cc(Cc3ccccc3)n[nH]2)c1)c1ccccc1.[Br-] [Compound 14, 1-(2-Phenyl-2-oxoethyl)-3-[(3-phenylmethyl)pyrazol-5-yl]-pyridinium bromide] | very good AGE breaking activity | 
O=C(C[n+]1cccc(-c2cc(COc3ccccc3)n[nH]2)c1)N1CCC(Cc2ccccc2)CC1.[Br-] [Compound 16, 1-(2-(4-Benzyl-1-piperidinyl)-2-oxoethyl) 3-[(3-phenoxymethyl)pyrazol-5-yl]-pyridinium bromide] | very good AGE breaking activity | significantly of high order
O=C(C[n+]1cccc(-c2cc(COc3ccccc3)n[nH]2)c1)c1cccs1.[Cl-] [Compound 24, 1-(2-Thien-2′-yl-2-oxoethyl)-3-[(3-phenoxymethyl)pyrazol-5-yl]pyridinium chloride] | very good AGE breaking activity | significantly of high order
O=C(C[n+]1cccc(-c2cc(Cc3ccccc3)n[nH]2)c1)NC12CC3CC(CC(C3)C1)C2.[Cl-] [Compound 25, 1-{2-(1-Adamantylamino-2-oxoethyl)}-3-[(3-phenylmethyl)pyrazol-5-yl]pyridinium chloride] | very good AGE breaking activity | significantly of high order
Cc1cc(C)n(Cc2cc(-c3ccc[n+](CC(=O)c4cc([N+](=O)[O-])cs4)c3)n(C3CCCCC3)n2)n1.[Br-] [Compound 27, 1-(2-(4-nitro-2-thienyl)-2-oxoethyl)-3-[(1-cyclohexyl-3-(3,5-dimethylpyrazol-1-yl)-methyl)pyrazol-5-yl]pyridinium bromide] | very good AGE breaking activity | significantly of high order
O=C(C[n+]1cccc(-c2cc(CCC3CCCCC3)nn2-c2ccccc2)c1)c1cccs1.[Br-] [Compound 37, 1-(2-Thien-2′-yl-2-oxoethyl)-3-[1-phenyl-3-(2-cyclohexylethyl)pyrazol-5-yl]pyridinium bromide] | very good AGE breaking activity | significantly of high order
